Measurements as given in PMC11736009.
These are yes or no findings as the source states them, for the method shown. In cells and extracts the contact can be indirect. Some results given as binding are weak or reduced against the parent protein; the word gives no strength. For some assays here: Sequences can lack the tags named with a protein.

Tests used:
[1] = biological target: full-length Diaph3-M1041A-Flag (mouse) (UniProt Q9Z207); experiment: co-IP; HEK293T cells cotransfected, harvested 48 h later; lysate incubated with Flag beads at 4 °C overnight, washed 3 to 4 times with lysis buffer; Western blot
[2] = biological target: full-length WT Diaph3-Flag (mouse) (UniProt Q9Z207); experiment: as above

Row | binding [1] | binding [2] | Binder
1 | binds |  | DETGVMDSLLEALQSGAAFRDRRKRTPKLKD (domain or fragment, UniProt Q9Z207 1036-1066) [Diaph3 DAD-HA]
2 | binds | binds | Trim27 (overexpressed) (protein, UniProt Q62158 1-513) MASGSVAECLQQETTCPVCLQYFVEPMMLDCGHNICCACLARCWGAAETNVSCPQCRETFPQRHMRPNRHLANVTQLVKQLRTERPSGPGGEMGVCEKHREPLKLYCEQDQMPICVVCDRSREHRGHSVLPLEEAVEGFKEQIQNRLDHLRRVKDLKKRRRAQGEQARAELLSLTQMEREKIVWEFEQLYHSLKEHEYRLLARLEELDLAIYNSINGAITQFSCNISHLSGLIAQLEEKQQQPTRELLQDIGDTLSRAERIRIPEPWITPPDLQEKIHIFAQKCLFLTESLKQFTEKMQSDMEKIQELREAQLYSVDVTLDPDTAYPSLILSDNLRQVRYSYLQQDLPDNPERFNLFPCVLGSPCFIAGRHYWEVEVGDKAKWTIGVCEDSVCRKGGVTSAPQNGFWAVSLWYGKEYWALTSPMTALPLRTPLQRVGIFLDYDAGEVSFYNVTERCHTFTFSHATFCGPVRPYFSLSYSGGKSAAPLIICPMSGIDGFSGHVGNHGHSMETSP
3 | binds | binds | Fbxo3 (overexpressed) (protein, UniProt Q9UK99-1 1-471) MAAMETETAPLTLESLPTDPLLLILSFLDYRDLINCCYVSRRLSQLSSHDPLWRRHCKKYWLISEEEKTQKNQCWKSLFIDTYSDVGRYIDHYAAIKKAWDDLKKYLEPRCPRMVLSLKEGAREEDLDAVEAQIGCKLPDDYRCSYRIHNGQKLVVPGLLGSMALSNHYRSEDLLDVDTAAGGFQQRQGLKYCLPLTFCIHTGLSQYIAVEAAEGRNKNEVFYQCPDQMARNPAAIDMFIIGATFTDWFTSYVKNVVSGGFPIIRDQIFRYVHDPECVATTGDITVSVSTSFLPELSSVHPPHYFFTYRIRIEMSKDALPEKACQLDSRYWRITNAKGDVEEVQGPGVVGEFPIISPGRVYEYTSCTTFSTTSGYMEGYYTFHFLYFKDKIFNVAIPRFHMACPTFRVSIARLEMGPDEYEEMEEEEEEEEEEDEDDDSADMDESDEDDEEERRRRVFDVPIRRRRCSRLF
